The values below come from PubChem BioAssay AID493014 (National Center for Advancing Translational Sciences (NCATS), 2011).

Some of the results follow. Further columns of the screen follow, without active or inactive calls. Most of these compounds were active or inconclusive in the main read-out, so they are no random draw. The note in brackets gives the kind of curve behind each potency; many fits are weak.

A short description of the test: qHTS Assay to Find Inhibitors of Chronic Active B-Cell Receptor Signaling. The following applies: ABC-DLBCL IkBa-CBG/CBR reporter, luminescence ratio (green luciferase fused to IkBa over red control in TMD8 lymphoma cells), 4 h. In a few lines: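 Compounds up to 46 uM were incubated four hours with TMD8 cells whose green CBG68 luciferase is fused to IkappaBalpha; red CBR luminescence normalised the signal, and concentration-effect curves were fitted to fusion, red and ratio data.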

[1] abbreviates: measured here: CBR red luminescence, cell number.
[2] abbreviates: measured here: IkBa-CBG green luminescence.

Consider `CCOc1ccc(Cn2nnc(C(=O)NCc3ccc(OC)cc3)c2N)cc1`, for which the AC50 under setting [1] was 32.6 µM [rising, single point]. On the same count and under the same terms, with `Nc1nnc(COc2ccc(Br)cc2Br)s1` the figure was 1.58 µM [rising, partial curve, poor fit]; with `COc1ccc(-c2cn(-c3ccccc3)c(=S)[nH]2)cc1OC`, 22.4 µM [rising, partial curve, poor fit]; with `Cc1ccc(S(=O)(=O)N2CCN(C(=O)N(c3ccccc3)c3ccccc3)CC2)cc1`, 4.61 µM [falling, single point]. Still for that read-out and setting: with `COCC(C)NC(C(=O)Nc1ccc(C)c(Cl)c1)c1ccccc1` (stereo not drawn) the figure was 2.91 µM [falling, full curve, poor fit]; with `O=C1NC(=Nc2ccccc2)S/C1=C\c1cccs1`, 1.58 µM [falling, full curve].

`CC(=O)C1=C(O)C(=O)N(c2ccc(Br)cn2)C1c1ccccc1F` (stereo not drawn): the AC50 under setting [1] is 17.8 µM [falling, single point]. Still for that read-out and setting: with `COC(=O)c1ccc(NC(=O)Nc2ccc(F)c(Cl)c2)cc1` the figure was 20.6 µM [falling, partial curve, poor fit]; with `COc1cccc(OC(=O)c2cc3ccccc3oc2=O)c1`, 2.51 µM [rising, partial curve, poor fit]; with `CCO/N=C/C(=O)Nc1ccc(F)cc1F`, 10 µM [falling, partial curve].

For the compound `CCCNC(=O)Nc1ccc(C(F)(F)F)cc1`, the half-maximal activity concentration (AC50) under setting [1] is 7.08 µM [rising, partial curve, poor fit].

For `O=C(Nc1nccs1)c1cc2sccc2n1Cc1ccc(Cl)cc1`, the AC50 under setting [1] was 29.1 µM [rising, partial curve, poor fit]. As for `N#C/C(=C/c1ccncc1)c1nc2ccccc2c(=O)[nH]1`, the AC50 under setting [1] was 15.8 µM [falling, partial curve]. Take `COc1ccc(Cl)cc1NC(=O)CC(=O)Nc1cc(Cl)ccc1OC`: the AC50 under setting [1] was 11.2 µM [rising, partial curve, poor fit]. On the same count and under the same terms, with `N/C(=N\OC(=O)CC1CCCCC1)c1ccncc1` the figure was 14.1 µM [rising, single point]; with `CCSc1nnc(NC(=O)C2CC(=O)N(Cc3ccccc3)C2)s1` (stereo not drawn), 11.2 µM [falling, single point]; with `CSc1cc(/C=N/O)c(SC)s1`, 1.64 µM [rising, partial curve, poor fit]. Still for that read-out and setting: with `CCc1cc2c(=O)[nH]c(CC(N)=O)nc2s1` the figure was 15.8 µM [rising, partial curve, poor fit]. On the same count and under the same terms, with `CCOC(=O)N1CCN(C(=O)C2CCN(c3ncnc4c3sc3cccc(F)c34)CC2)CC1` the figure was 11.2 µM [falling, partial curve]; with `COc1ccc(-c2nnc(SCC(=O)Oc3ccc(C)cc3)o2)cc1`, 20.6 µM [falling, partial curve, poor fit]; with `COc1ccc(-c2ccc(Nc3ccc(C(=O)N4CCOCC4)cc3)nn2)cc1OC`, 18.4 µM [falling, single point]. In the case of `O=C(Nc1cccc(S(=O)(=O)N2CCCCC2)c1)c1ccc2c(c1)OCO2`, the AC50 under setting [1] is 23.1 µM [falling, single point]. On the same count and under the same terms, with `C/C(=N\NC(=O)c1nn(C)c(C)c1Br)c1ccc(NC(=O)c2ccoc2C)cc1` the figure was 16.4 µM [falling, single point]; with `COc1ccc(OC)c(S(=O)(=O)Nc2cccnc2)c1`, 20.6 µM [falling, single point]. For the compound `O=C(Nc1ccc(N2CCCCC2)cc1)C(Cl)c1ccccc1` (stereo not drawn), the AC50 under setting [1] was 1.78 µM [rising, partial curve]. As for `Cc1ccccc1CN(C)C(=O)COC(=O)c1ccc2[nH]c(C)c(C)c2c1`, the AC50 under setting [1] was 29.1 µM [falling, single point]. `CCOC(=O)c1c(/N=C/C2=C(O)CC(C)(C)CC2=O)sc(C)c1C`: the AC50 under setting [1] was 9.2 µM [rising, partial curve, poor fit]. With `CC1CCN(C(=O)CSc2nc3ccccc3[nH]2)CC1`, the AC50 under setting [1] was 1.64 µM [rising, full curve, poor fit]. On the same count and under the same terms, with `O=C(/C=C/Nc1ccccc1)c1ccc(Cl)cc1Cl` the figure was 31.6 µM [falling, single point]; with `COc1cc(C(=O)NC(C)CCc2ccccc2)cc(OC)c1OC` (stereo not drawn), 11.2 µM [rising, partial curve]; with `CCOC(=O)C(=O)Nc1nnc(C2CCCCC2)s1`, 0.13 µM [rising, full curve]. On the same count and under the same terms, with `O=C(COC(=O)c1ncc(Cl)c(Cl)c1Cl)NCCc1ccccc1` the figure was 2.31 µM [falling, partial curve, poor fit]; with `COc1ccc(/C=C/C(=O)NC(C)CCc2ccccc2)cc1OC` (stereo not drawn), 35.5 µM [falling, single point]; with `COc1cc(/C=N/NC(=O)c2ccc(O)cc2)ccc1OCC(=O)N1CC(C)OC(C)C1` (stereo not drawn), 0.794 µM [falling, full curve]. As for `CC(=O)c1sc(NC(=O)C2CCN(C(=O)c3ccccc3C)CC2)nc1-c1ccccc1`, the AC50 under setting [1] is 11.6 µM [falling, partial curve, poor fit]. Consider `CCC(=O)Nc1ccc(-n2nnnc2SCC(=O)NNC(=O)c2ccco2)cc1`, for which, under setting [1], the AC50 was 6.31 µM [rising, partial curve, poor fit]. Same read-out and setting: with `CCCCn1c(CCCNC(=O)CC)nc2ccccc21` the figure was 25.9 µM [falling, single point]. On the same count and under the same terms, with `C=CCN(C1CCCCC1)S(=O)(=O)c1ccc2c(c1)oc(=O)n2C` the figure was 20 µM [falling, partial curve, poor fit]; with `O=C(O)c1cccc(Cn2c(Cl)c(/C=N/NC(=O)c3ccccc3O)sc2=O)c1`, 11.2 µM [falling, partial curve]; with `Oc1ccc(Cl)cc1CNCc1ccc(Cl)cc1`, 6.51 µM [rising, single point]. Still for that read-out and setting: with `CCC(CO)NC(=O)c1cc2c(s1)CCC2` (stereo not drawn) the figure was 7.31 µM [falling, single point]; with `O=S(=O)(c1ccc(F)cc1)N(CCO)CC(O)Cn1c2ccccc2c2ccccc21` (stereo not drawn), 6.51 µM [falling, single point]. As for `O=c1[nH]n2c(-c3ccccc3)nc(O)c2c2ccccc12`, the AC50 under setting [1] is 2.24 µM [falling, full curve, poor fit]. The same measure, in the same setting: with `O=C(Cc1ccccn1)c1ccc(O)cc1O` the figure was 5.01 µM [rising, partial curve]. As to `Cc1ccc(CNC(=O)c2ccc(C#CC(C)(C)O)s2)cc1`, the AC50 under setting [1] is 23.1 µM [rising, partial curve, poor fit]. Turning to `CCc1nnc(NC(=O)CSc2ccc(-c3nc4ccccc4[nH]3)cn2)s1`, the AC50 under setting [1] is 7.08 µM [falling, partial curve]. Consider `CN1C(=O)C(/C(N)=N/NC(=O)c2ccccc2)C2CC1(C)Oc1ccccc12` (stereo not drawn), for which the AC50 under setting [1] was 2.06 µM [falling, partial curve, poor fit]. On the same count and under the same terms, with `COc1ccccc1N1CCN(C(=O)c2sc3nc(-c4ccc(F)cc4)cn3c2C)CC1` the figure was 29.1 µM [falling, single point]. Regarding `C(#Cc1ccccc1)Cn1nnc2ccccc21`, the AC50 under setting [1] is 25.9 µM [rising, partial curve, poor fit]. Same read-out and setting: with `CCOc1ccccc1OCC(=O)Nc1cc2c(cc1C(=O)O)OCCCO2` the figure was 35.5 µM [falling, single point]; with `Cc1ccc(C)c(N(CC(=O)NCc2ccccc2)C(=O)c2csnn2)c1`, 4.47 µM [rising, single point].

As to `COc1ccc(C(=O)Nc2ccc(Cl)cc2C(=O)N2CCCC(C)C2)cc1` (stereo not drawn), the AC50 under setting [1] was 1.84 µM [rising, full curve]. On to `O=C(CCCN1C(=O)/C(=C/c2ccccc2Cl)SC1=S)N1CCCC1`, for which the AC50 under setting [1] is 8.91 µM [falling, partial curve, poor fit].

In the case of `COc1cc(CN2CCc3ccccc3C2)ccc1O`, under setting [1], the AC50 is 35.5 µM [falling, single point]. As for `O=C(CCC(=O)OCC(=O)c1ccc(Br)cc1)Nc1ccc(Br)c2cccnc12`, the AC50 under setting [1] was 2.31 µM [falling, full curve, poor fit]. In the case of `Clc1ccc(/C=C/c2nc(Cl)c(-c3ccc(Cl)cc3)c(Cl)n2)cc1`, the AC50 under setting [1] was 1.26 µM [falling, partial curve, poor fit]. On the same count and under the same terms, with `Nc1cc(Oc2ccc(F)cc2F)cc([N+](=O)[O-])c1` the figure was 14.1 µM [rising, single point]; with `CCN(CC)S(=O)(=O)c1ccc(N/N=C(\C)c2ccncc2)nc1`, 22.4 µM [rising, partial curve, poor fit].

`COc1ccc(-c2sc3ccc(OC)cc3c2C#Cc2ccccn2)cc1`: the AC50 under setting [1] was 20.6 µM [rising, partial curve]. The same measure, in the same setting: with `CCOC(=O)c1ccccc1OCc1cc(/C=N/NC(=O)c2cccnc2)ccc1OC` the figure was 10 µM [falling, partial curve]; with `O=C(/C=C/c1ccco1)NC(=S)Nc1ccc(N2CCCC2)cc1`, 20.6 µM [falling, partial curve]; with `COc1cccc2c(SCC(=O)N/N=C/c3ccc(O)cc3O)cc(C)nc12`, 35.5 µM [falling, single point]. `CCOC(=O)c1c(C)sc2c1N(C(C)=O)c1cc(Cl)ccc1S2`: the AC50 was 1.12 µM [rising, full curve, poor fit] under setting [1] and 7.94 µM [falling, partial curve] under setting [2]. With `CN(C)S(=O)(=O)c1cccc(NC(=O)CSc2nc3ccccc3[nH]2)c1`, the AC50 under setting [1] was 35.5 µM [falling, single point]. On the same count and under the same terms, with `COc1ccc(CCC(=O)NCc2cnn(C)c2)cc1` the figure was 0.731 µM [rising, partial curve, poor fit]. Consider `CCOC(=O)c1c(C)[nH]c(C(=O)CN2C(=O)NC(CC)(c3ccccc3)C2=O)c1C` (stereo not drawn), for which the AC50 was 0.794 µM [falling, partial curve, poor fit] under setting [1] and 0.708 µM [rising, full curve, poor fit] under setting [2].
